Test [1] addresses T1, V5-tagged RRP6 (D. melanogaster) (UniProt Q9VFF3).
T1 sequence: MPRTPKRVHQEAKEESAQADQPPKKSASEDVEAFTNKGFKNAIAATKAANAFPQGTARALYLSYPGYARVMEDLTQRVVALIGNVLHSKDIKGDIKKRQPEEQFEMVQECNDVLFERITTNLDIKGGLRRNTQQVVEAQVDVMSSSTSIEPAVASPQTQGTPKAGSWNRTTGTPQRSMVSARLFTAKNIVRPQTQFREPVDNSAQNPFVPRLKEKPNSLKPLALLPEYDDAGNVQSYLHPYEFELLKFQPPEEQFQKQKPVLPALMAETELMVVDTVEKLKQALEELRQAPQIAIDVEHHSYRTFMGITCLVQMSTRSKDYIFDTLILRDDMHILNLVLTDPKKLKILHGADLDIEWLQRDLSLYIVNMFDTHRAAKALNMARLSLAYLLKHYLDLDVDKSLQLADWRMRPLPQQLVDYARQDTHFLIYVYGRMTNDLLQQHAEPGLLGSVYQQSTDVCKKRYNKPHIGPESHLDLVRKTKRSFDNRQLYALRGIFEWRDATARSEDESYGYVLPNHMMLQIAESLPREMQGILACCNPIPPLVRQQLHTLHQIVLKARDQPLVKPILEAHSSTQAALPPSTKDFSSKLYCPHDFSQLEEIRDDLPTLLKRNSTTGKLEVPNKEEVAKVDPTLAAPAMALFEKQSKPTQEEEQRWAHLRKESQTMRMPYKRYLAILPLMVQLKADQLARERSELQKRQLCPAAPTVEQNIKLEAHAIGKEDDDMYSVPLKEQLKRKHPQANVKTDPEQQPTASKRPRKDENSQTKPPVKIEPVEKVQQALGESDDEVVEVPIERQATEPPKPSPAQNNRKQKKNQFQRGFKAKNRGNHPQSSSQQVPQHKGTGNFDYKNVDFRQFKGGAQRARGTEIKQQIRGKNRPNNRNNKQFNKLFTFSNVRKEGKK
Nature of the test: co-IP; nuclear extracts (sonicated in PBS) of S2-RRP6-V5 cells; IP with anti-V5, and reciprocal IP with antibodies against endogenous HP1a and RPD3; Western blotting. For orientation: A western blot detects proteins with antibodies after separation by electrophoresis.

The chains behind the UniProt entries cited, without tags or fusion partners. Where a name states a change or a piece, a line headed by the entry shows the natural chain unless it says otherwise.
UniProt P45975: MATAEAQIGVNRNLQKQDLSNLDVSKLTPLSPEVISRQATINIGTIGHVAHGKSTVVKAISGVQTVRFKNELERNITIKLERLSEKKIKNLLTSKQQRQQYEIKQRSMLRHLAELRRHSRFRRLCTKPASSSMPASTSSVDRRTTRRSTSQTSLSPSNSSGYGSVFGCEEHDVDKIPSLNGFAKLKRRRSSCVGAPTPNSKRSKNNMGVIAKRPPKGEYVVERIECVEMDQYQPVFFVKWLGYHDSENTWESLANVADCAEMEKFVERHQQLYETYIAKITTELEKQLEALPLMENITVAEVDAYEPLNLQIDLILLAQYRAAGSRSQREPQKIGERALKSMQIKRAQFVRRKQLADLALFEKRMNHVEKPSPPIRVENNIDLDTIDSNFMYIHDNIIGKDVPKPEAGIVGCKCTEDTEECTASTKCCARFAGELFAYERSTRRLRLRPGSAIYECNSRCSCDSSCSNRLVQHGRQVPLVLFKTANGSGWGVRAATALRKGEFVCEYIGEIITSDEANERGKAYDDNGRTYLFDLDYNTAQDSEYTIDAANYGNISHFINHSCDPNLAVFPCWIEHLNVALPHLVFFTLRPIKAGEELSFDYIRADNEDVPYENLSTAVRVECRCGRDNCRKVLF
UniProt P05205: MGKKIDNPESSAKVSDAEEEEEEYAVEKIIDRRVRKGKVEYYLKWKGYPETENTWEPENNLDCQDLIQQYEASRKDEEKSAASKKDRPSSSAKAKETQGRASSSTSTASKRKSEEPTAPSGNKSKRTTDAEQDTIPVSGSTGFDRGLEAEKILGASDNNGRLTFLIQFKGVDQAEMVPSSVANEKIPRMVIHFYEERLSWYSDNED
UniProt Q94517: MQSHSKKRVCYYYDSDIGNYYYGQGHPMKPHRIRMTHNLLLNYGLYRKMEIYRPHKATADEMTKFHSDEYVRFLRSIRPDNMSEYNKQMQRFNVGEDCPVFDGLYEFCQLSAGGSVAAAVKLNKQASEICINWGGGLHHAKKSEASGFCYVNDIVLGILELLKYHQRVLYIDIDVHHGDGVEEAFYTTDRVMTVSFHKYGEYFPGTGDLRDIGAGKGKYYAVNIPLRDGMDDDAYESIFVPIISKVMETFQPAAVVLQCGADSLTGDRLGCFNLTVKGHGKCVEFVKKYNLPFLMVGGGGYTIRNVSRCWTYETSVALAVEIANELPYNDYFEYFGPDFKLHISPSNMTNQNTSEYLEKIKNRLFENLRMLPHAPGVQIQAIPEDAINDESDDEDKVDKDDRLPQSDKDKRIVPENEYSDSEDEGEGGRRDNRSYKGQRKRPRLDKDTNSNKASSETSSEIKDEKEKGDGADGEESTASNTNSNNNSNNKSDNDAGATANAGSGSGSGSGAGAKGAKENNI

Test [2] concerns the target HA-tagged SU(VAR)3-9 (D. melanogaster) (UniProt P45975). Nature of the test: co-IP; nuclear extracts of S2 cells expressing both SU(VAR)3-9-HA and RRP6-V5; IP with anti-HA; Western blotting.
The target is the same in test [3]. Description: proximity ligation; fixed S2 cells expressing SU(VAR)3-9-HA and RRP6-V5, antibodies against HA and V5, Duolink probes.
Test [4] addresses Heterochromatin Protein 1a (D. melanogaster (endogenous in S2)) (UniProt P05205). Description: co-IP; nuclear extracts (sonicated in PBS) of S2-RRP6-V5 cells; IP with anti-V5, and reciprocal IP with antibodies against endogenous HP1a and RPD3; Western blotting.
In test [5] the target is RPD3 (D. melanogaster (endogenous in S2)) (UniProt Q94517). The test is described as above.

No constants are given. Whether binding was seen depends on the method and setting. Binding seen in cells or lysates may run through a third protein. Some entries that bind do so weakly or less than the wild type. Where a sequence is shown, tags or fusion partners need not be part of it.

The values below come from publication PMC4577213.

As to “RPD3 (from UniProt Q94517 1-521) (enzyme)”, the binding result in test [1] is on record as “binds”.

B1: V5-tagged RRP6 (enzyme, UniProt Q9VFF3 1-900)
chain: T1 sequence
Take B1: the binding entry in test [2], in test [3], in test [4] and in test [5] was “binds” each time.
